Reference: the supplement of paper PMC12067093, “Discovery and optimisation of a covalent ligand for TRIM25 and its application to targeted protein ubiquitination” (Chemical Science, 2025)
The list shows a part of the results.

The chains behind the UniProt entries cited, without tags or fusion partners. Where a name states a change or a piece, a line headed by the entry shows the natural chain unless it says otherwise.
UniProt P60981: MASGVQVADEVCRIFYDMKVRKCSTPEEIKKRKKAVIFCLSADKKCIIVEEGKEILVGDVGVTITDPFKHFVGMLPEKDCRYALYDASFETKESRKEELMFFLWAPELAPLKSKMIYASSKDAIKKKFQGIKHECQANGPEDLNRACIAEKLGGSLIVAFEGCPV
UniProt Q96G46: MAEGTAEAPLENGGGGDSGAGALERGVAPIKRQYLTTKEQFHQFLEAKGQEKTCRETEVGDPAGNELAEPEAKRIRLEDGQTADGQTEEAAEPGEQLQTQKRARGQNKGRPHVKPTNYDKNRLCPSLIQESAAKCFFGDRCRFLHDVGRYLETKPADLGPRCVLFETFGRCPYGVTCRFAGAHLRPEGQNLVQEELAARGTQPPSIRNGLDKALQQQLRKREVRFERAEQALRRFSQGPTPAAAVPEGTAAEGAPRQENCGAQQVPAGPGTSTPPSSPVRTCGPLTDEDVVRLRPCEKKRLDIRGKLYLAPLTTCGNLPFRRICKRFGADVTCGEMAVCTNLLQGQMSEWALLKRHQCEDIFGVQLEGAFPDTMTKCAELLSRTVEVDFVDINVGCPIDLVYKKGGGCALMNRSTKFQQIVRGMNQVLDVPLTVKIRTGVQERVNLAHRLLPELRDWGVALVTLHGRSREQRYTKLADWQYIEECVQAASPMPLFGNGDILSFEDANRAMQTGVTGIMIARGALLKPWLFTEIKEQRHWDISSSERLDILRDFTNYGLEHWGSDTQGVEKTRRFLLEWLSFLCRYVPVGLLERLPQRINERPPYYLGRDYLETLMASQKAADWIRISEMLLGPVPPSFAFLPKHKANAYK
UniProt P33316: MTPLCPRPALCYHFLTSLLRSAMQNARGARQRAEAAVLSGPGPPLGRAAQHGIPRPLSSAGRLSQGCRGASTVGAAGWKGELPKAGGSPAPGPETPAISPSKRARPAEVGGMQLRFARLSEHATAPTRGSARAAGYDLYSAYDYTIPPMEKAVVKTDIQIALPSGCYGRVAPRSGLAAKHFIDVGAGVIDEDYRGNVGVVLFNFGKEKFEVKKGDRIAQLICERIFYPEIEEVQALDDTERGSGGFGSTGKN
UniProt Q86TI2: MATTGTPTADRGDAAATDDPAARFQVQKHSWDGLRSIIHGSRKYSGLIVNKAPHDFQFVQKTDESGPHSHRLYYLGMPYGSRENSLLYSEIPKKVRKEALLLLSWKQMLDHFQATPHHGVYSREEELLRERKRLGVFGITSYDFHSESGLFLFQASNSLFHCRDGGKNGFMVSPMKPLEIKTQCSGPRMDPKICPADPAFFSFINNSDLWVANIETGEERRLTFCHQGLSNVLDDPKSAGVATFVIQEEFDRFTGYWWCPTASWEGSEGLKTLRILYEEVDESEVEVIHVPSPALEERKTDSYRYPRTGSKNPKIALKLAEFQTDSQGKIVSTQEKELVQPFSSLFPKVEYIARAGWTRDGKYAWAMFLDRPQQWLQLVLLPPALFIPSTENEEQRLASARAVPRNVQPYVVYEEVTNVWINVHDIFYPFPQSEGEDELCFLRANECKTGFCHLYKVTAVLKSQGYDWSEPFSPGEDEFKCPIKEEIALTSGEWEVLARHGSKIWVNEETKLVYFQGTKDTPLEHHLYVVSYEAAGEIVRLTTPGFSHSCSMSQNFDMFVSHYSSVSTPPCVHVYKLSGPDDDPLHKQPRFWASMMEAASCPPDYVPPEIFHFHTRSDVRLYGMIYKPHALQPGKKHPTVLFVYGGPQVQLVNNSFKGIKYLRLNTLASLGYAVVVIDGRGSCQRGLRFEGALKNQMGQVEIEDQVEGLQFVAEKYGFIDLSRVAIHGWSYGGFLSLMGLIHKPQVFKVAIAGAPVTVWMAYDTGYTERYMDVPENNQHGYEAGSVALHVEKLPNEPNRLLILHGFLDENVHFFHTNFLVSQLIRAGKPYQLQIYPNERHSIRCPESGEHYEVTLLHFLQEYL
UniProt Q9BVJ7: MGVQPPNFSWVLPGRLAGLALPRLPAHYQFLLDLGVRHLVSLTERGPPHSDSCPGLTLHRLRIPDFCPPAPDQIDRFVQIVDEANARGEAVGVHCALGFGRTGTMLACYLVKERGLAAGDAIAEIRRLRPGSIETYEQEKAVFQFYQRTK
UniProt Q99848: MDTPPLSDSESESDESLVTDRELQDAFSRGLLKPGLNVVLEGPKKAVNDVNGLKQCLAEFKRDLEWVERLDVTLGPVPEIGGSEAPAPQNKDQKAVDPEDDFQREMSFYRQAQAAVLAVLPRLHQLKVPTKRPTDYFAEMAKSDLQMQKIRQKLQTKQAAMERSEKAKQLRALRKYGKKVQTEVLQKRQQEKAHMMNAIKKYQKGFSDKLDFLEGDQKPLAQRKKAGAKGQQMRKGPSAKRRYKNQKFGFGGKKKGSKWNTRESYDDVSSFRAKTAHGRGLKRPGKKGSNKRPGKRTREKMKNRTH
UniProt P23919: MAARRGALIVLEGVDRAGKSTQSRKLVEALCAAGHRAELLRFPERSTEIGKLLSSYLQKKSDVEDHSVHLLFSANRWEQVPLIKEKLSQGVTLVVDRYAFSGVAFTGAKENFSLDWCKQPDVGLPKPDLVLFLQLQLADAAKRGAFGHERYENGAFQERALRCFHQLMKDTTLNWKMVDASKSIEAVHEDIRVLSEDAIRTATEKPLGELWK
UniProt Q4G0W2: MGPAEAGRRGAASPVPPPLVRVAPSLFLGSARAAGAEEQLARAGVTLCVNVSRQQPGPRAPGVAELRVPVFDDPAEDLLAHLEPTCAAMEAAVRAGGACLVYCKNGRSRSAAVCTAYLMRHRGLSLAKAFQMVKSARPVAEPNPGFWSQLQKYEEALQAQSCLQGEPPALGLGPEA
UniProt Q92785, whole entry, looked up: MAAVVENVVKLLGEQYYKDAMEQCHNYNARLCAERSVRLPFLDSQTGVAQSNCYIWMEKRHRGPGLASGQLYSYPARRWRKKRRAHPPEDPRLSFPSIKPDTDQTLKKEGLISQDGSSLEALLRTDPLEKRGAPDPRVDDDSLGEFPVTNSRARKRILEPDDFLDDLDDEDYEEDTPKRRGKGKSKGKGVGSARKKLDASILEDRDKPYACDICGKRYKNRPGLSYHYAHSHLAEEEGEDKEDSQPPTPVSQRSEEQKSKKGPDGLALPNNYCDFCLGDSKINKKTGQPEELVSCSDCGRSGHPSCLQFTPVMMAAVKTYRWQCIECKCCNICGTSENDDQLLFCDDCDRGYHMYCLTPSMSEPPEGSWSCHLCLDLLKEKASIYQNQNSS
UniProt Q6UX65: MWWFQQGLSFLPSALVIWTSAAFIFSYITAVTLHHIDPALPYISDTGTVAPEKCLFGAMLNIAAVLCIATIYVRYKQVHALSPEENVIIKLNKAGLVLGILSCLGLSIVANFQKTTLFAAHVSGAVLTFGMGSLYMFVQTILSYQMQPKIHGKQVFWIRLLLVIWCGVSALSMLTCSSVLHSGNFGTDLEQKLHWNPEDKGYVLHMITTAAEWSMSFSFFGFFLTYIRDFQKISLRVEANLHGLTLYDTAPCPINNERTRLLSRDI
UniProt P26358: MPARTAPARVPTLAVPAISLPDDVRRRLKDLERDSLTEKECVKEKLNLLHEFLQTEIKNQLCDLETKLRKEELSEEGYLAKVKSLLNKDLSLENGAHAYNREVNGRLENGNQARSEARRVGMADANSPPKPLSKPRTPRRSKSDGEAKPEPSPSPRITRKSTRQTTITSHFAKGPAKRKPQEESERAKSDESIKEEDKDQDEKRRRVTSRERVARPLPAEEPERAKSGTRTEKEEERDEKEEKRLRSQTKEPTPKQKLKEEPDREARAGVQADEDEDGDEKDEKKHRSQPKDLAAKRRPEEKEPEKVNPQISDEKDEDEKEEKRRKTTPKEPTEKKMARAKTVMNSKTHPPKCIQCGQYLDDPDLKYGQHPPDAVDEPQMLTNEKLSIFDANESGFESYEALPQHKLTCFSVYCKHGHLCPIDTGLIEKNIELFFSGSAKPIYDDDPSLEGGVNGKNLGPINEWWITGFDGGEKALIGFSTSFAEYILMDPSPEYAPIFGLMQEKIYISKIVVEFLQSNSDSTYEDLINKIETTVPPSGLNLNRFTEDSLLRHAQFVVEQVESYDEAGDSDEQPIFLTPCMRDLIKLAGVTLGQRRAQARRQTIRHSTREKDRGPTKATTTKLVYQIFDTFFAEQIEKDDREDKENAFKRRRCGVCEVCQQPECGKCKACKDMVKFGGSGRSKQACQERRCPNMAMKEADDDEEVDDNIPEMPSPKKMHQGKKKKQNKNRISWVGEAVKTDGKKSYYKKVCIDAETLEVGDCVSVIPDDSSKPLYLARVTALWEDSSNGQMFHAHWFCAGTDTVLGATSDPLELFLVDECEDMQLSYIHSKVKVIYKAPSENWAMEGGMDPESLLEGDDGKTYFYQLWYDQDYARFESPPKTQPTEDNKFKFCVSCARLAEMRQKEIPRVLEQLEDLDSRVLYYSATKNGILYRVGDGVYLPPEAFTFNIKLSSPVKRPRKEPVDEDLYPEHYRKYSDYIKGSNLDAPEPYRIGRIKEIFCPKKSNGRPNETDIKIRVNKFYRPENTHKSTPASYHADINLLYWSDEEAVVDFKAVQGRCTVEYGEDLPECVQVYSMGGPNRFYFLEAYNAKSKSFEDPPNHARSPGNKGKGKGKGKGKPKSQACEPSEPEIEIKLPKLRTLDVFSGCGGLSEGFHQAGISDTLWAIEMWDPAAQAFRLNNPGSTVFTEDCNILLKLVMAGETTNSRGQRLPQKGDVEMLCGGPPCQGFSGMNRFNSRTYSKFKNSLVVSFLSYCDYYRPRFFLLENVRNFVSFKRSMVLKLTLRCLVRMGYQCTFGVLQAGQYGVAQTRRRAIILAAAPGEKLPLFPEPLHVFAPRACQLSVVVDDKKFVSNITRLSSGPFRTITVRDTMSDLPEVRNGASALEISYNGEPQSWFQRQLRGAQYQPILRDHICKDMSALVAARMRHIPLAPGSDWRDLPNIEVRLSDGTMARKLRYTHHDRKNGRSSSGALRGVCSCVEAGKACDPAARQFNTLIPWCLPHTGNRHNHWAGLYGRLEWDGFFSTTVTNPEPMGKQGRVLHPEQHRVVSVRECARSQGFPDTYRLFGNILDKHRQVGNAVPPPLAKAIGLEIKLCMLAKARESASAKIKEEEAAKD
UniProt Q8TEK3: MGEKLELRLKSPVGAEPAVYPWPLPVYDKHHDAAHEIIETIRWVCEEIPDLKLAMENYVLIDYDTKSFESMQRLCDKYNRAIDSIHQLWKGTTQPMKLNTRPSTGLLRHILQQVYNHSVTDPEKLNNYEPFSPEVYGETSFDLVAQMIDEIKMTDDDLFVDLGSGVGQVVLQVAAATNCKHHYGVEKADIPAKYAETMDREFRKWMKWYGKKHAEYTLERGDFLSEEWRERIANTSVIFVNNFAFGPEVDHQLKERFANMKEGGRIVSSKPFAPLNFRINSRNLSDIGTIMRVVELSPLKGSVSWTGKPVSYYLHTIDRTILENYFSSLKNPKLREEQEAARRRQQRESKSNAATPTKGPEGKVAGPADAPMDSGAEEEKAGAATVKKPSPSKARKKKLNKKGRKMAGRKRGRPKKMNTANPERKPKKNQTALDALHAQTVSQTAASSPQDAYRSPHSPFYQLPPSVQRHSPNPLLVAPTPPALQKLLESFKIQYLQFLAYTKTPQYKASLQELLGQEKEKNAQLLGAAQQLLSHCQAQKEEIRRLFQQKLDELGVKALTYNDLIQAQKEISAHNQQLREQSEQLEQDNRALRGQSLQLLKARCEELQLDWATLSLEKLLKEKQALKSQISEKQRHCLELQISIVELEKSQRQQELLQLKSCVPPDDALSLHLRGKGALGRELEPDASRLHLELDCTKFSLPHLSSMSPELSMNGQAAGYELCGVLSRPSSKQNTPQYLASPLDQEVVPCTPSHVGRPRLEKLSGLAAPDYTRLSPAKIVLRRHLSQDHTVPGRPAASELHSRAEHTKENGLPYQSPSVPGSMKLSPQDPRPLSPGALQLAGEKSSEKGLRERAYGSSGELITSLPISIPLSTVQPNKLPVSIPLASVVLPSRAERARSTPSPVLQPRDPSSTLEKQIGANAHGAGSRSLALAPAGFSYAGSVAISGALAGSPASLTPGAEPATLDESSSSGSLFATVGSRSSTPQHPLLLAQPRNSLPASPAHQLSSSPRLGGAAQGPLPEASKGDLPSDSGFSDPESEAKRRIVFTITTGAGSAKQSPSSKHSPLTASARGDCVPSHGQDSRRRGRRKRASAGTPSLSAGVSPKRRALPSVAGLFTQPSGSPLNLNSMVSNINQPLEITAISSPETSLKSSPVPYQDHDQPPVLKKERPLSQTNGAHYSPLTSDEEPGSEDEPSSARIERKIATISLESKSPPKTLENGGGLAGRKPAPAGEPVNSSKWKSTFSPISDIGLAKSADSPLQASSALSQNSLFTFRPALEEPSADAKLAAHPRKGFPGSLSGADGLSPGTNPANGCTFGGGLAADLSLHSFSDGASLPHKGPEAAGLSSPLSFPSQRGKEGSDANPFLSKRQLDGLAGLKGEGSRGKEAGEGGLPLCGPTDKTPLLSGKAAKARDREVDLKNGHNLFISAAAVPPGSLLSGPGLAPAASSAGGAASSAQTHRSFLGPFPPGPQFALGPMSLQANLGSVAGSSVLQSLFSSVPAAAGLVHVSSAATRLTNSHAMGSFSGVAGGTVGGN

Compound: Cc1cc(ccc1-c1ccccc1)C(=O)N1CCCN(CC1)C(=O)CCl [compound 10]
Test: probe-labelled cysteine peptide fold change vs DMSO (competition) (log2 fold change); higher = less target engagement (more negative = stronger competition)
Conditions: 50 µM; THP-1; incubation time: 4 h
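Note: competitive profiling in live THP-1 cells: cysteine peptides tagged with an iodoacetamide desthiobiotin (IA-DTB) probe, intensity after compound treatment relative to DMSO-treated cells.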

Row | Target | probe-labelled cysteine peptide fold change
1 | DSTN_P60981_23_CSTPEEIK (UniProt P60981) | -0.26
2 | ECD_O95905_267_CLYAQLVQQR (UniProt O95905) | -0.591
3 | DUS3L_Q96G46_408_KGGGCALMNR (UniProt Q96G46) | -0.495
4 | DUSP11_O75319_117_KLAPEECFSPLDLFNK (UniProt O75319) | -0.474
5 | DUT_P33316_222_IAQLICER (UniProt P33316) | 0.000299
6 | DPP9_Q86TI2_259_FTGYWWCPTASWEGSEGLK (UniProt Q86TI2) | 0.28
7 | DPYD_Q12882_671_SEDSGADALELNLSCPHGMGER (UniProt Q12882) | -0.264
8 | DSCR3_O14972_187_GHLNSTNCVITQPLTGELVVESSEAAIR (UniProt O14972) | 0.313
9 | DUSP23_Q9BVJ7_95_GEAVGVHCALGFGR (UniProt Q9BVJ7) | -0.0562
10 | DYRK1A_Q13627_551_HSGGHFTAAVQAMDCETHSPQVR (UniProt Q13627) | -0.265
11 | EBNA1BP2_Q99848_56_QCLAEFKR (UniProt Q99848) | -0.192
12 | DPP7_Q9UHL4_338_LYHSCADPTGCGTGPDAR (UniProt Q9UHL4) | 0.0143
13 | EAPP_Q56P03_210_AMFVMNCSINK (UniProt Q56P03) | 0.185
14 | DTX3L_Q8TDB6_599_AMSYKPICPTCQTSYGIQK (UniProt Q8TDB6) | -0.482
15 | DOK3_Q7L591_282+295_CHSGEGLFAFSTPCAPDLCR (UniProt Q7L591) | -0.351
16 | DTYMK_P23919_31_LVEALCAAGHR (UniProt P23919) | 0.228
17 | DXO_O77932_108_DEEVQERLDHLLCWLLEHR (UniProt O77932) | 0.183
18 | DTYMK_P23919_31_KLVEALCAAGHR (UniProt P23919) | -0.0218
19 | ECHDC1_Q9NTX5_133_SLGTPEDGMAVCMFMQNTLTR (UniProt Q9NTX5) | 0.0908
20 | DPCD_Q9BVM2_164_FSIPDLDRHQLPLDDALLSFAHANCTLIISYQK (UniProt Q9BVM2) | 0.223

Row | Target | probe-labelled cysteine peptide fold change
21 | DUSP28_Q4G0W2_86_VPVFDDPAEDLLAHLEPTCAAMEAAVR (UniProt Q4G0W2) | 0.0262
22 | DOCK6_Q96HP0_595_SSCSEFTR (UniProt Q96HP0) | -0.0966
23 | DPF2_Q92785_295_TGQPEELVSCSDCGR (UniProt Q92785) | 0.491
24 | DPP3_Q9NY33_176_EGITTYFSGNCTMEDAK (UniProt Q9NY33) | 0.164
25 | DRAM2_Q6UX65_252_VEANLHGLTLYDTAPCPINNER (UniProt Q6UX65) | -0.0952
26 | DUSP12_Q9UNI6_23_VSCAGQMLEVQPGLYFGGAAAVAEPDHLR (UniProt Q9UNI6) | -0.596
27 | DPH7_Q9BTV6_33_HLLACGTYQLR (UniProt Q9BTV6) | 0.078
28 | DNMT1_P26358_762_VCIDAETLEVGDCVSVIPDDSSK (UniProt P26358) | -0.493
29 | DSTN_P60981_46_CIIVEEGK (UniProt P60981) | 0.0986
30 | ECHS1_P30084_111_EMQNLSFQDCYSSK (UniProt P30084) | 0.0484
31 | DSTN_P60981_39_AVIFCLSADK (UniProt P60981) | -0.0395
32 | DYNC1H1_Q14204_3147_EAIVNSCVFVHQTLHQANAR (UniProt Q14204) | 0.138
33 | DRG1_Q9Y295_195_GGINLTATCPQSELDAETVK (UniProt Q9Y295) | 0.182
34 | DOT1L_Q8TEK3_1397_EAGEGGLPLCGPTDK (UniProt Q8TEK3) | -0.0739
35 | DUS3L_Q96G46_358_RHQCEDIFGVQLEGAFPDTMTK (UniProt Q96G46) | 0.0576
36 | DPYSL2_Q16555_504_GLYDGPVCEVSVTPK (UniProt Q16555) | -0.0861
37 | DPH5_Q9H2P9_120_VIHNASIMNAVGCCGLQLYK (UniProt Q9H2P9) | 0.264
38 | DYNC1I2_Q13409_331_KTTPEYVFHCQSAVMSATFAK (UniProt Q13409) | 0.221
39 | DUS3L_Q96G46_408_GGGCALMNR (UniProt Q96G46) | -0.343
